In PubChem BioAssay AID2685 (National Center for Advancing Translational Sciences (NCATS), 2010):
Some of the results follow. Shown are side measurements of this screen, not its main read-out; they come without a call. The list favours compounds with an active or inconclusive main result. Words in brackets tell the shape of the fitted curve; partial curves, single points and poor fits give uncertain potencies.

Assay: qHTS Assay for Lipid Storage Modulators in Drosophila S3 Cells;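 as to cell number change: cells counted by Cell Tracker Red CMTPX staining in the red channel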
Conditions: BODIPY lipid droplet fluorescence, 18-24 h; for cell number change: measured here: cell count max response, cells fed with added oleic acid
Method in brief: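 Drosophila S3 cells loaded with oleic acid (400 uM, as added) and compounds at several concentrations; lipid droplets imaged by 488-nm laser-scanning cytometry, 500–530 nm intensity and object ratio to cell channel. Percent activity normalized to 20 uM Triacsin C.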

[1] = measured here: lipid fluorescence (Fed channel) AC50, cells fed with added oleic acid
[2] = measured here: cell number channel AC50, cells fed with added oleic acid

Compound | cell number change [%] | AC50 [1] | AC50 [2]
O=C(CN(C(=O)CCC(=O)Nc1nccs1)c1ccc(F)cc1)NCc1ccco1 | 14.8 | 0.92 µM [rising, full curve, poor fit] | –
Cc1cc(NC(=O)CCC(=O)N(Cc2ccco2)C(C(=O)NC2CCCCC2)c2cccs2)no1 (stereo not drawn) | -33.1 | – | 20.6 µM [falling, partial curve]
O=S(=O)(c1ccc(N2CCOCC2)nc1)N1CCOCC1 | -1.17 | – | –
Cc1ccc(OCCC(=O)OCC(=O)c2c(N)n(CC(C)C)c(=O)n(C)c2=O)cc1 | -15.5 | 16.4 µM [falling, partial curve] | –
O=C(Nc1cccc(-c2cnc3ccccc3n2)c1)c1ccco1 | – | 29.1 µM [falling, partial curve, poor fit] | –
COc1cccc(CN2CCCN(S(=O)(=O)c3ccc(Br)cc3)CC2)c1 | – | – | 0.92 µM [falling, single point]
COC(=O)c1ccccc1NC(NC(=O)c1ccco1)C(=O)c1ccccc1 (stereo not drawn) | 37.9 | – | 18.4 µM [rising, single point]
Cc1cc(C)cc(N2C(=O)CC(n3ccnc3)C2=O)c1 (stereo not drawn) | 5.58 | – | 6.51 µM [rising, single point]
CCCCOc1ccc(S(=O)(=O)N2CCCCC2)cc1 | -5.25 | – | –
O=C(NCC1CC1)c1onc(CSc2ccc(F)c(F)c2)c1C(=O)NCC1CC1 | -15.2 | 2.31 µM [falling, single point] | 4.11 µM [falling, single point]
Nc1ccccc1S(=O)(=O)NC1=NCCCCC1 | -52.1 | 2.31 µM [falling, full curve, poor fit] | 1.16 µM [falling, full curve]
O=C(CCc1nc(-c2ccccc2Cl)no1)Nc1cccnc1 | -11.3 | 29.1 µM [falling, single point] | –
COc1ccc(C2CC(c3ccccc3)=NN2C(=O)CSc2nccc(=O)[nH]2)cc1 (stereo not drawn) | -19 | – | 0.651 µM [falling, single point]
COc1cc(-c2nc(CN3CCN(c4ncccn4)CC3)c(C)o2)ccc1F | 25.7 | – | –
Cc1c(CCC(=O)NCCCN2CCCC2=O)c(=O)oc2cc(O)ccc12 | 6.15 | 4.11 µM [rising, full curve, poor fit] | –
Cc1ccc2nc(SCC(=O)N3CCC(Cc4ccccc4)CC3)nc(=O)n2c1 | 1.39 | 6.51 µM [rising, single point] | –
CN(Cc1cccs1)C(=O)CSc1nnnn1C | -21.6 | 0.13 µM [falling, full curve, poor fit] | 0.13 µM [falling, full curve, poor fit]
N#C/C(=C(\O)Cc1ccccc1)c1nc2ccccc2[nH]1 | – | 0.651 µM [rising, single point] | 0.731 µM [rising, single point]
CCOC(=O)c1c(NC(=S)Nc2ccc(C)cc2)sc2c1CCC2 | 44.9 | 1.46 µM [rising, full curve] | 0.92 µM [rising, partial curve]

Compound | cell number change [%] | AC50 [1] | AC50 [2]
Cc1ccccc1Cn1cnc2ccccc2c1=O | 27.4 | 1.16 µM [rising, partial curve] | –
COCc1ccc(C(=O)N2CCCC(C(=O)c3ccc(SC)cc3)C2)s1 (stereo not drawn) | -6.03 | 4.11 µM [falling, single point] | –
Cc1ccc(-c2nc3c(c(SCC(=O)Nc4cccc(C(=O)O)c4)n2)Cc2cccc(C)c2O3)cc1 | 18.9 | 29.1 µM [rising, single point] | –
COc1ccc(NC2CCCN(C(=O)c3cc(CC(C)C)nc(N)n3)C2)cc1 (stereo not drawn) | -11.2 | 6.51 µM [falling, single point] | –
CCCc1cc(=O)[nH]c(SCC(=O)NC(=O)NC2CCCC2)n1 | -2.36 | 0.116 µM [falling, full curve, poor fit] | –
CCNc1ccc(C(=O)OCC(=O)N2c3ccccc3NC(=O)C2(C)C)cc1[N+](=O)[O-] | -4.08 | 29.1 µM [rising, single point] | –
Cc1ccn2c(NC3CCCC3)c(-c3ccccn3)nc2c1 | -30.5 | 20.6 µM [falling, partial curve] | 20.6 µM [falling, single point]
Cc1ccc(Nc2ccc(S(=O)(=O)N3CCOCC3)cc2[N+](=O)[O-])c(C)c1 | -28.5 | – | –
CCOC(=O)c1[nH]c2ccc(OC)cc2c1NC(=O)C(C)N1CCC2(CC1)OCCO2 (stereo not drawn) | -6.34 | 0.116 µM [rising, single point] | –
Cc1ccc(N=Cc2c(C)[nH]n(-c3ccccc3)c2=O)nc1 | 16.2 | 0.092 µM [rising, full curve, poor fit] | –
CC(=NCc1ccco1)c1c(C(F)(F)F)[nH]n(-c2nc3ccccc3s2)c1=O | 109 | – | 7.31 µM [rising, partial curve]
CC(=O)Nc1ccc(S(=O)(=O)NNC(=O)COc2cc(C)ccc2C(C)C)cc1 | – | 14.6 µM [falling, partial curve, poor fit] | 0.0326 µM [rising, full curve, poor fit]
CC1(C2CC2)NC(=O)N(CC(=O)N2CCN(c3ccccc3)CC2)C1=O (stereo not drawn) | -1.47 | 0.0731 µM [rising, full curve, poor fit] | –
COc1cccc(-c2csc(N3CCN(C(=O)Nc4ccccc4Cl)CC3)n2)c1 | 16.5 | – | 0.00411 µM [rising, full curve, poor fit]
CC1CCCCN1CCCNC(=O)Cn1c(=O)c2cccn2c2ccccc21 (stereo not drawn) | – | 6.51 µM [falling, single point] | –
Cc1ccc(-c2nnn(CC(=O)N(CC(=O)NC3CCCC3)c3cccc(F)c3)n2)o1 | -2.63 | – | –
O=C(CNS(=O)(=O)c1cccs1)N1CCCC1 | -4.25 | 0.82 µM [falling, full curve, poor fit] | –
CCN(CC)S(=O)(=O)c1cccc(NC(=O)CN(C)C2CCCCC2)c1 | 22.5 | 6.51 µM [falling, partial curve, poor fit] | –
COC(=O)c1nc(-n2nc(C)cc2C)ccc1Cl | 14.6 | 6.51 µM [rising, single point] | 0.651 µM [rising, full curve]

Compound | cell number change [%] | AC50 [1] | AC50 [2]
CCc1ccc(NC(=O)C2CC(=O)Nc3ncnn32)cc1 (stereo not drawn) | 100 | – | 18.4 µM [rising, single point]
O=C(COC(=O)/C=C/c1ccc(F)cc1)Nc1ccccc1-c1ccccc1 | -22.6 | 2.31 µM [rising, partial curve] | –
O=C(O)CC1NC(=O)N(c2ccc(Cl)cc2)C1=O (stereo not drawn) | 2.79 | 6.51 µM [falling, partial curve, poor fit] | –
CC(=O)NC(Cc1ccccc1F)C(=O)NC1CCN(S(=O)(=O)c2ccccc2)CC1 (stereo not drawn) | 17.7 | – | –
CC(OC(=O)C1CCCCC1)C(=O)Nc1cccc([N+](=O)[O-])c1 (stereo not drawn) | -34.2 | – | 32.6 µM [falling, single point]
CCOC(=O)c1cn(CC)c2ccc(S(=O)(=O)N3CCC(C)CC3)cc2c1=O | 8.1 | 5.8 µM [rising, full curve, poor fit] | –
CC(=O)N1C=CN(C(C)=O)C(c2cn(C)c3ccccc23)C1c1cn(C)c2ccccc12 (stereo not drawn) | -11.7 | – | –
COc1cccc(NC(=O)COC(=O)CCC2CCCC2)c1 | 7.09 | 16.4 µM [rising, partial curve, poor fit] | –
CSCCC(NC(=O)c1ccco1)C(=O)OC(C)C(=O)NC(=O)NC1CCCCC1 (stereo not drawn) | – | 0.103 µM [falling, full curve, poor fit] | –
Cc1ccc(C)c(OCCOCCN2CCOCC2)c1 | – | 20.6 µM [falling, partial curve] | –
COC(=O)C1=C(C)N(CC(C)C)C(=O)C1 | 6.83 | 29.1 µM [falling, single point] | –
COc1cccc(NCc2cc(=O)oc3cc(-c4ccccc4)c(O)cc23)c1 | -31.1 | 32.6 µM [falling, single point] | 29.1 µM [falling, single point]
O=C(O)/C(=C\c1ccc(Cl)c([N+](=O)[O-])c1)c1ccc(S(=O)(=O)N2CCCCC2)s1 | – | 29.1 µM [falling, single point] | –
CC1(C)OC(=O)C2(Cc3ccccc3N3CCCCC32)C(=O)O1 (stereo not drawn) | -27.4 | 1.03 µM [falling, full curve] | 0.461 µM [falling, full curve, poor fit]
NC(=O)C1(NC(=O)[C@@H]2CC3(CC(c4cccc(NC(=O)[C@@H]5CCC(=O)N5)c4)=NO3)CN2C(=O)c2ccccc2)CC1 (stereo partly drawn) | -3.83 | 29.1 µM [rising, single point] | –
CCOC(=O)N1CCN(C(=O)c2sc3nc(-c4ccc(F)cc4)cn3c2C)CC1 | 82.6 | 0.82 µM [rising, partial curve, poor fit] | 7.31 µM [rising, partial curve, poor fit]
CC(C)(C)n1ncc2c(=O)n(Cc3c(Cl)cccc3Br)cnc21 | -43.9 | 9.2 µM [falling, single point] | 32.6 µM [falling, single point]
Cc1cccc(NC(=O)CN2CCN(C(=O)c3oc4c(Cl)cccc4c3C)CC2)c1C | 6.51 | 1.3 µM [rising, full curve] | 0.00517 µM [rising, full curve, poor fit]
O=[N+]([O-])c1ccc(C[n+]2cccc(O)c2)cc1 | 18.1 | 0.651 µM [rising, full curve, poor fit] | 0.461 µM [rising, full curve, poor fit]

Given tab-delimited: ten of the compounds above.
Compound	cell number change [%]	AC50 [1]	AC50 [2]
Cc1ccc(C)c(OCCOCCN2CCOCC2)c1	–	20.6 µM [falling, partial curve]	–
COC(=O)C1=C(C)N(CC(C)C)C(=O)C1	6.83	29.1 µM [falling, single point]	–
COc1cccc(NCc2cc(=O)oc3cc(-c4ccccc4)c(O)cc23)c1	-31.1	32.6 µM [falling, single point]	29.1 µM [falling, single point]
O=C(O)/C(=C\c1ccc(Cl)c([N+](=O)[O-])c1)c1ccc(S(=O)(=O)N2CCCCC2)s1	–	29.1 µM [falling, single point]	–
CC1(C)OC(=O)C2(Cc3ccccc3N3CCCCC32)C(=O)O1 (stereo not drawn)	-27.4	1.03 µM [falling, full curve]	0.461 µM [falling, full curve, poor fit]
NC(=O)C1(NC(=O)[C@@H]2CC3(CC(c4cccc(NC(=O)[C@@H]5CCC(=O)N5)c4)=NO3)CN2C(=O)c2ccccc2)CC1 (stereo partly drawn)	-3.83	29.1 µM [rising, single point]	–
CCOC(=O)N1CCN(C(=O)c2sc3nc(-c4ccc(F)cc4)cn3c2C)CC1	82.6	0.82 µM [rising, partial curve, poor fit]	7.31 µM [rising, partial curve, poor fit]
CC(C)(C)n1ncc2c(=O)n(Cc3c(Cl)cccc3Br)cnc21	-43.9	9.2 µM [falling, single point]	32.6 µM [falling, single point]
Cc1cccc(NC(=O)CN2CCN(C(=O)c3oc4c(Cl)cccc4c3C)CC2)c1C	6.51	1.3 µM [rising, full curve]	0.00517 µM [rising, full curve, poor fit]
O=[N+]([O-])c1ccc(C[n+]2cccc(O)c2)cc1	18.1	0.651 µM [rising, full curve, poor fit]	0.461 µM [rising, full curve, poor fit]
